# Test results as given in publication PMC7581431.
# T1: Nkd1-BirA* (murine) (UniProt Q99MH6)
# T1 sequence: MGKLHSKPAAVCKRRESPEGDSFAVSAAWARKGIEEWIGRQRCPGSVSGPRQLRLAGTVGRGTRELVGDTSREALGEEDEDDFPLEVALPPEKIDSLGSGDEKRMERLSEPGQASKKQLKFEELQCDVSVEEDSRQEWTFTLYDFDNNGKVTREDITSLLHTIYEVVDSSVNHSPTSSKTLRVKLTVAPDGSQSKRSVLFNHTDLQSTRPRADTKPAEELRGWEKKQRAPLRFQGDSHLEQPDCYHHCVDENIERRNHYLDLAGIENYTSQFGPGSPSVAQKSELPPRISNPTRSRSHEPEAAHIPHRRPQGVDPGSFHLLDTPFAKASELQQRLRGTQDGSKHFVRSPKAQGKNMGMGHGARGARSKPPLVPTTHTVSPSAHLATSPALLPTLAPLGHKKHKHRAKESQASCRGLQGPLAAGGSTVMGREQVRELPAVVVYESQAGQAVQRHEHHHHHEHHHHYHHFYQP
# Molecular target: T1, Nkd1-BirA* (murine)
# Assay: proximity labelling; BioID with mass spectrometry; BirA* baits stably integrated in Flp-In-T-REx-293 cells, tetracycline-induced, Wnt3a-conditioned media and 50 μM biotin for 12 hr; streptavidin pull-down; hits specific if counts >5 fold over GFP-BirA*; hits may be direct binders or vicinal …
row,binding,Binder
1,binds,"VANGL1 (protein, UniProt Q8TAA9 1-524) MDTESTYSGYSYYSSHSKKSHRQGERTRERHKSPRNKDGRGSEKSVTIQPPTGEPLLGNDSTRTEEVQDDNWGETTTAITGTSEHSISQEDIARISKDMEDSVGLDCKRYLGLTVASFLGLLVFLTPIAFILLPPILWRDELEPCGTICEGLFISMAFKLLILLIGTWALFFRKRRADMPRVFVFRALLLVLIFLFVVSYWLFYGVRILDSRDRNYQGIVQYAVSLVDALLFIHYLAIVLLELRQLQPMFTLQVVRSTDGESRFYSLGHLSIQRAALVVLENYYKDFTIYNPNLLTASKFRAAKHMAGLKVYNVDGPSNNATGQSRAMIAAAARRRDSSHNELYYEEAEHERRVKKRKARLVVAVEEAFIHIQRLQAEEQQKAPGEVMDPREAAQAIFPSMARALQKYLRITRQQNYHSMESILQHLAFCITNGMTPKAFLERYLSAGPTLQYDKDRWLSTQWRLVSDEAVTNGLRDGIVFVLKCLDFSLVVNVKKIPFIILSEEFIDPKSHKFVLRLQSETSV"
2,binds,"DVL1 (protein, UniProt O14640 1-695) MAETKIIYHMDEEETPYLVKLPVAPERVTLADFKNVLSNRPVHAYKFFFKSMDQDFGVVKEEIFDDNAKLPCFNGRVVSWLVLAEGAHSDAGSQGTDSHTDLPPPLERTGGIGDSRPPSFHPNVASSRDGMDNETGTESMVSHRRERARRRNREEAARTNGHPRGDRRRDVGLPPDSASTALSSELESSSFVDSDEDGSTSRLSSSTEQSTSSRLIRKHKRRRRKQRLRQADRASSFSSITDSTMSLNIVTVTLNMERHHFLGISIVGQSNDRGDGGIYIGSIMKGGAVAADGRIEPGDMLLQVNDVNFENMSNDDAVRVLREIVSQTGPISLTVAKCWDPTPRSYFTVPRADPVRPIDPAAWLSHTAALTGALPRYGTSPCSSAVTRTSSSSLTSSVPGAPQLEEAPLTVKSDMSAVVRVMQLPDSGLEIRDRMWLKITIANAVIGADVVDWLYTHVEGFKERREARKYASSLLKHGFLRHTVNKITFSEQCYYVFGDLCSNLATLNLNSGSSGTSDQDTLAPLPHPAAPWPLGQGYPYQYPGPPPCFPPAYQDPGFSYGSGSTGSQQSEGSKSSGSTRSSRRAPGREKERRAAGAGGSGSESDHTAPSGVGSSWRERPAGQLSRGSSPRSQASATAPGLPPPHPTTKAYTVVGGPPGGPPVRELAAVPPELTGSRQSFQKAMGNPCEFFVDIM"
3,binds,"AMER1 (protein, UniProt Q5JTC6 1-1135) METQKDEAAQAKGAAASGSTREQTAEKGAKNKAAEATEGPTSEPSSSGPGRLKKTAMKLFGGKKGICTLPSFFGGGRSKGSGKGSSKKGLSKSKTHDGLSEAAHGPEDVVSEGTGFSLPLPELPCQFPSSQSAHGALETGSRCKTSVAGATEKAVAEKFPSMPKPKKGLKGFFSSIRRHRKSKVTGAEQSEPGAKGPERVRARPHEHVSSAPQVPCFEETFQAPRKENANPQDAPGPKVSPTPEPSPPATEKMACKDPEKPMEACASAHVQPKPAPEASSLEEPHSPETGEKVVAGEVNPPNGPVGDPLSLLFGDVTSLKSFDSLTGCGDIIAEQDMDSMTDSMASGGQRANRDGTKRSSCLVTYQGGGEEMALPDDDDEEEEEEEEVELEEEEEEVKEEEEDDDLEYLWETAQMYPRPNMNLGYHPTTSPGHHGYMLLDPVRSYPGLAPGELLTPQSDQQESAPNSDEGYYDSTTPGFEDDSGEALGLVRRDCLPRDSYSGDALYEFYEPDDSLENSPPGDDCLYDLHGRSSEMFDPFLNFEPFLSSRPPGAMETEEERLVTIQKQLLYWELRREQLEAQEARAREAHAREAHAREAYTREAYGREAYAREAHTWEAHGREARTREAQAREVRCRETQVRETQARQEKPVLEYQMRPLGPSVMGLAAGVSGTSQISHRGITSAFPTTASSEPDWRDFRPLEKRYEGTCSKKDQSTCLMQLFQSDAMFEPDMQEANFGGSPRRAYPTYSPPEDPEEEEVEKEGNATVSFSQALVEFTSNGNLFSSMSCSSDSDSSFTQNLPELPPMVTFDIADVERDGEGKCEENPEFHNDEDLAASLEAFELGYYHKHAFNNYHSRFYQGLPWGVSSLPRYLGLPGLHPRPPPAAMALNRRSRSLDTAETLEMELSNSHLVQGYLESDELQAQQEDSDEEDEEEEEGEWSRDSPLSLYTEPPGAYDWPAWAPCPLPVGPGPAWISPNQLDRPSSQSPYRQATCCIPPMTMSISLSVPESRAPGESGPQLARPSHLHLPMGPCYNLQPQASQSMRARPRDVLLPVDEPSCSSSSGGFSPSPLPQAKPVGITHGIPQLPRVRPEHPQPQPTHYGPSSLDLSKERAEQGASLATSYSSTAMNGNLAK"

# No constants are given. Whether binding was seen depends on the method and setting. In cells and extracts the contact can be indirect. A yes stands for co-enrichment or nearness to the bait. Other partners may have been found.
